The test deals with T1, ASGR1 (truncation constructs expressed from plasmids in Huh7 cells) (Homo sapiens (Human)) (UniProt P07306).
T1 sequence: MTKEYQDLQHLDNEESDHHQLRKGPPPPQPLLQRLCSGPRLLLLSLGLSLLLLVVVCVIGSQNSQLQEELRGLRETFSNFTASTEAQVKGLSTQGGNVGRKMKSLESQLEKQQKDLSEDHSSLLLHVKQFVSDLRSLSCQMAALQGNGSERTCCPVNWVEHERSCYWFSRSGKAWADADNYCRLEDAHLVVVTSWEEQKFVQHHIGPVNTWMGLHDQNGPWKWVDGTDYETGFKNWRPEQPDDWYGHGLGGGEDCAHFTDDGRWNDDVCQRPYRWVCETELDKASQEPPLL
Description: Western blotting of Huh7 cells transfected with ASGR1 truncation plasmids.

No constants are given. Whether binding was seen depends on the method and setting. Some entries that bind do so weakly or less than the wild type.

B1: ASGR1 neutralizing antibody 4B9 (antibody, V domains shown)
VH: QSLEESGGDLVKPGATMTLTCKASGFSFSGSLWICWVRQAPGKGLEWIACIYVGSSGSTYYASWAKGRFTISTTSSTTVTLQMTSLTAADTATYFCARRYTDAYGGYPAGSFVFKLWGPGTLVTVSS
VL: QVLTQTPSPVSAAVGGTVTINCQASQSVYNNKNLGWYQQKPGQPPKLLIYYASDLASGVPSRFKGSGSGKQFTLTISDVQCDDAATYYCQGEFSCSSADCCAFGGGTEVVVK
Take B1: the binding entry is listed as “binds”.
